Test results taken from article PMC10005301, “Prediction of the n-Octanol/Water Partition Coefficients of Basic Compounds Using Multi-Parameter QSRR Models Based on IS-RPLC Retention Behavior in a Wide pH Range” (Molecules, 2023).

Key:
[1] = IS-RPLC retention on silica-based C18 column, logkw by linear solvent strength model; type: physicochemical; conditions: methanol/20 mmol/L ammonium phosphate buffer, Welch Xtimate C18, 30 °C, 100% aqueous extrapolation
Description: (§1) The retention behavior of the 42 basic compounds (Table 1) were investigated at different ratios of methanol (φ = 0.7–0.1, the interval was 0.1 or 0.05 based on the retention of the investigated solutes). The logk values were plotted versus φ for each solute at pH 7.0, pH 8.0, pH 9.0, and pH 10.0. […] The logD values of the model compounds and verification compounds calculated using Equation (S3) based on the logP and pH values are also listed in Table 1.
The column temperature was set at 30 °C. Methanol and 20 mmol/L ammonium phosphate buffer (pH = 7.0, 8.0, 9.0, 10.0) was used as the mobile phase to perform isocratic elution. The injection volume was 10 µL and the detection wavelength for each eluted compound was set at its optimum absorption wavelength.
(§2) At each pH, the retention time (tR) of every analyte was determined for at least four different volume fractions (φ) of methanol. All the tR values of the solutes were obtained by averaging the results of at least three independent injections. The tR value was corrected using dual-point retention time correction (DP-RTC). For a detailed description of the process, refer to our previous work. For the different hydrophobicities of the studied compounds, benzene, toluene, and benzyl alcohol were used as anchor compounds in the DP-RTC method. The dead time t0 was determined using uracil. For each solute, the logarithm of k was plotted against φ, and logkw was obtained using the Equation (S1). The logD values of the model compounds were calculated using Equation (S3), and the logD–logkw models were established with Equation (S4). The statistical analysis for the regression model was accomplished using Origin 9.4. […]
Where, k is the capacity factor, φ is the volume fraction of organic modifier in the mobile phase, and S is the constant obtained by linear regression in the equations. […]
The Eqs. (S1) and (S2) are the basis for the determination of logP by revered- phase liquid chromatography (RPLC) method. For dissociative solutes, it has been confirmed by many studies that the logD calibrated from logP has a better linear correlation with logkw than logP. […]

[2] = Description: as §1, §2

Cc1cccc(N)n1 [2-Amino-6-methylpyridine]
logkw-pH 7.0 ([1]; pH 7.0): 0.99
logkw-pH 8.0 ([1]; pH 8.0): 1.13
logkw-pH 9.0 ([1]; pH 9.0): 1.19
logkw-pH 10.0 ([1]; pH 10.0): 1.27
logDpH 7.0 ([2]; pH 7): 0.53
logDpH 8.0 ([2]; pH 8): 0.98
